Data taken from US10889748B2, “Process for preparing dibenzylamine quaternary ammonium salt high-temperature resistant corrosion inhibitor and applications thereof” (Southwest Petroleum University, priority 2018, dated 2021).

Assay: 4 h corrosion test at 90° C. in 20% hydrochloric acid
Conditions: P110 carbon steel, 1000 ppm inhibitor
Experimental: The corrosion inhibition performance of corrosion inhibitors in the embodiments 1 to 4 is determined by a 4 h corrosion test at 90° C. using 20% hydrochloric acid as a corrosive medium and P110 carbon steels. The amount of corrosion inhibitors is 1000 ppm.

Row | Structure (SMILES) | Surface morphology
1 | OC(C[N+]1(Cc2ccc3ccccc3c2)CCOCC1)C[N+](Cc1ccccc1)(Cc1ccccc1)Cc1ccc2ccccc2c1 (stereo not drawn) [Embodiment 1] | Smooth and flat
2 | OC(C[N+](Cc1ccccc1)(Cc1ccccc1)Cc1ccccc1)C[N+]1(Cc2ccccc2)C=Cc2ccccc21 (stereo not drawn) [Embodiment 2] | Smooth and flat
3 | CCCCCC[N+](Cc1ccccc1)(Cc1ccccc1)CC(O)C[N+](CCCCCC)(Cc1ccccc1)CC(O)C[N+](CCCCCC)(Cc1ccccc1)Cc1ccccc1 (stereo not drawn) [Embodiment 3] | Smooth and flat
